According to patent publication US7910575B2, “Prophylactic or therapeutic agents for allergic ophthalmic diseases or allergic nasal diseases, comprising tricyclic triazolobenzazepine derivative” (Meiji Seika Kaisha, Ltd., priority 2006, dated 2011):
Marks after values point to notes of the source that are not given here.

Test system: allergic conjunctivitis
Test: Prophylactic effect on allergic conjunctivitis (instillation before induction, late phase)
Assay type: in vivo, rat
Conditions: Test Example 1-2, medicament concentration 0.1%
Experimental: Male SD rats were prepared. Bordetella pertussis (4×10^10) and 1 mg of dinitrophenylated ovalbumin (hereinafter often abbreviated to “DNP-OA”) were subcutaneously administered into the footpad of the rats. After 8 to 10 days from the administration, a 3% DNP-OA solution was administered to the right eye of the rats to induce an allergic reaction. In some experiments, in order to confirm dye leakage and location of edema, a dye was injected, and, in the anatomy, the coincidence of dye leakage with the location of edema was confirmed. […] After 9 hr from the induction of the allergic reaction, the eyeballs of the rats were harvested. Further, lenses, hydatoids, and the contents of the vitreous body were removed from the eyeballs, and the weight of the tissues was measured. Furthermore, the dye leakage amount in the harvested eye tissue was measured. […] The absorbance (630 nm) of Evans Blue in the supernatant was measured with Multiskan JX (manufactured by Labsystem Ltd.). The amount of the dye was regarded as a dye leakage amount. […] For the control group, 0.15 M sodium hydrogencarbonate adjusted to pH 7.2 was administered. […] In the table, the inhibition ratio was calculated by the following equation. […]

C[C@H]1C[C@H]2[C@@H]3CCC4=CC(=O)C=C[C@]4(C)[C@@]3(F)[C@@H](O)C[C@]2(C)[C@@]1(O)C(=O)COP(=O)([O-])[O-].[Na+].[Na+] [Betamethazone, betamethazone sodium phosphate, reference compound]
Inhibition ratio Increase in tissue weight: 79.6% **
